Results on 108 sequences are retold here after PubChem BioAssay AID1347426 (Functional Genomics Laboratory (NCATS/FGL), 2020).

Hit rate of the full screen: of about 31,000 sequences, about 1,400 (4.5%) were called active.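 The calls were made as follows: active = median seed-adjusted z-score above 1 or below -1; inactive = the rest.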 The list shows a part of the results.

The nature of the experiment: Novel Modifiers of Survival Motor Neuron (SMN) Protein: Gene Identification via Genome-wide siRNA Screen.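 Also: luminescence tracks full-length SMN protein made from the SMN2 reporter.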 To be noted: HEK293T SMN2-luciferase reporter, siRNA knockdown, 72 h; actives lie on both sides. The method in brief: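 siRNA screen, 10418 genes ×3 siRNAs; 1 pmol/well, lipid reverse transfection into HEK293T SMN2-luc reporter line. 72 h, 37 °C, 5% CO2; ONE-Glo readout. Data: neg-ctrl normalized, log10, MAD; hit = MAD >1.0 or < -1.0.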
Turning to GCGAAUUGGGAAUCAGUAATT against POLR3F, the median seed-adjusted z-score is inactive: 0.
As to GCCCAUCCUGGUCAUGUUATT against COX8A, the median seed-adjusted z-score was inactive: -0.0749.
The same measure for GGACCUUCGUAGCAUUGCATT against E2F1: inactive: -0.211; for GGACAUGAGAGGAACAGUUTT against ADCY1: inactive: 0.154; for AGUUCGCCGUGGUGCACAATT against NAT8L: inactive: 0.
As to GGAUCGAAGGAGACAAACUTT against RBP7, the median seed-adjusted z-score was inactive: 0.0709.
Next, GGAGUUUAUGAAUCAGCUATT against KLC1: inactive: -0.0912; GAAUUGGGCUUGUUGAUAUTT against KCNB2: active: 1.22; AGCUCACCCUGAAGAACAATT against LIMS2: inactive: 0.
The same measure for CGAGCAAAGUUCUGGGUGATT against RAB24: inactive: 0.123.
For GGACCUCGUUAUCUAUCUUTT against SLC35A3, the median seed-adjusted z-score is inactive: 0.321.
Next, CAUCAUCUCUGGAACUCUUTT against ALAS2: inactive: -0.142; GGGCAUGUCUUAACGAAGATT against DMRT2: inactive: -0.344.
Next, CACCCUCGCAGUCUCCAAATT against HSPA12B: inactive: -0.141.
The same measure for CCUAGAAGUUUGUCACUGATT against COX6C: inactive: -0.0449; for AGGUGACCGGCUUCAAAAATT against SNX18: inactive: 0.
Turning to GAGCAGCUGUAUAAGCUCATT against MAP3K6, the median seed-adjusted z-score was inactive: 0.
For the sequence CUAGAAGAGACGAAACGAATT against ESCO1, the median seed-adjusted z-score was inactive: 0.755.
The same measure for CGAGAUCGAGUUCAUCUUUTT against ACHE: inactive: 0; for GAGUUUGAGAAGACCCAGATT against BCAR1: inactive: -0.469; for GCCUGUCGGUCAUUGAGAATT against AQP8: inactive: -0.763.
Turning to CUUUAAUAAAGCUAGGAUATT against PPP1R14B, the median seed-adjusted z-score was inactive: 0.205.
Next, AGCACAGAAUUACACGUAUTT against MAN2B2: inactive: 0.0555.
Next, GGAACUGCUGCAUUAGAUATT against ITCH: inactive: 0.199; GCUUCAGGAUGUGCCCAAATT against ENTPD2: inactive: 0.0319.
GGUUUCUAAGGUAAACGGATT against JARID2: the median seed-adjusted z-score was inactive: 0.115.
The same measure for GGGAUCUAGUGAAUAAACUTT against EIF2B4: inactive: 0.
The same measure for GGACCAUCUCGAACCACCATT against LIMD2: inactive: 0.418; for GAGUUGAAACAGAGAUUUATT against 14-Sep: inactive: 0.227; for AGUCAGCACAGUCAAGUCATT against GPX6: inactive: 0.35.
Next, CUACCUGCUGAAUAACUAUTT against ALG12: inactive: -0.401; GCCGUGAUGUUGUCACUGATT against PPP2R5D: inactive: 0.848; GGCUUUGCGGAGGAAGAAATT against CHMP4A: inactive: -0.209.
With GUGUGGACUUUCAACCUGATT against DNAH9, the median seed-adjusted z-score is inactive: 0.656.
Turning to GCCGCUUCCACCAUACCUATT against RUNX3, the median seed-adjusted z-score is inactive: -0.489.
CUACCGAUGCUGAAAGACATT against PGM3: the median seed-adjusted z-score was inactive: -0.527.
Next, GGGAAAAGCAAGUAGCUCUTT against SSX6: inactive: -0.493; GAAGGAGAUUUGCACAGGATT against CARM1: inactive: 0.317.
Turning to UGAUAAGGAUAACAAGAGATT against CAMP, the median seed-adjusted z-score is inactive: -0.622.
For GCAUAACUUGAAUAGUACATT against AKAP11, the median seed-adjusted z-score was inactive: -0.0405.
GCUCAGAGAUGACACCGAATT against FAH: the median seed-adjusted z-score was inactive: -0.0836.
Regarding CCAACCUAAUUAUGGAGGATT against PCDHGB4, the median seed-adjusted z-score was inactive: 0.176.
The same measure for GCCCUAAAAGUGACCAUCATT against CCR9: inactive: 0.16; for GCACCAUCACGGAUGUCCATT against EBI3: inactive: -0.206; for GUACAACUCUGACAAGGGATT against TOPORS: inactive: 0.381.
Regarding CCAUUCACAUGGACUUUUUTT against CYP3A4, the median seed-adjusted z-score was inactive: 0.633.
On to CUAUGUAUUUGACAGCGAATT against GULP1, for which the median seed-adjusted z-score was inactive: -0.0337.
The same measure for CGAUGAUCCUGACAAUGCUTT against OMD: inactive: 0; for GGUGUCACCCUGUGAAUUUTT against MAP1S: inactive: 0.0941.
As for GCGGAGGAGUUGAAUCGAATT against DDX43, the median seed-adjusted z-score is inactive: -0.452.
Take CCUGAGCCACGUUAUCUCGTT against HBQ1: the median seed-adjusted z-score is inactive: -0.578.
Next, CUCUGAUAUUUGACCGGGATT against WDR64: inactive: -0.25; GGUUGUAGUUCACGGCUUATT against ZNF7: inactive: 0.
GAACGAGUGAGAGAAUAUATT against TTC9C: the median seed-adjusted z-score was inactive: -0.571.
The same measure for CAGGAUAUCGAAUCCCUAATT against PPFIA2: inactive: 0.176; for CCAUAGCCCGAGUGAUUGATT against CRYZL1: inactive: 0.0481.
Turning to CAGUGAAGCUAUCAAGUUATT against PSMA8, the median seed-adjusted z-score is inactive: 0.407.
In the case of UCCUAGUCUCUAUCAUUAATT against LTC4S, the median seed-adjusted z-score is inactive: 0.
The same measure for GUCGAGUAUUCAUCCGAGATT against DHX57: inactive: -0.138.
The same measure for GAAUCUACCUUGCUGCUCATT against G6PC: inactive: -0.628; for GAGGAAAUCUCGGACCUUATT against MYH6: inactive: 0.
In the case of GGCGCAAUGAUAAAUCUUATT against COL4A6, the median seed-adjusted z-score was inactive: 0.0681.
Regarding GCAUCGUCUCCUAUGGAAATT against CTSG, the median seed-adjusted z-score was inactive: -0.47.
Next, GAAGCACAAUAAACGGGUATT against HYOU1: inactive: 0.0557; CAACUUCAUGGUUCGAAAUTT against OTC: inactive: 0.496; GGCAAUGACCGCUAAAGGATT against COX6B1: inactive: -0.706.
With CCAGAGACCCUGUUUAAGATT against KCNF1, the median seed-adjusted z-score was inactive: -0.19.
In the case of CCAUUGGAGCUUCACCGAATT against POLA1, the median seed-adjusted z-score is inactive: -0.317.
Take GUUGGGAACUGUCGACAAATT against EIF3F: the median seed-adjusted z-score is inactive: -0.0214.
As to AGAUCUCGGUUGACCAACATT against KRT4, the median seed-adjusted z-score was inactive: 0.336.
Next, GAGCGAAGGUCAUAAUACATT against MORC4: inactive: 0.13; CUCAGAGUGCAGAACCACATT against TRIM15: inactive: 0.292; GAGGCAAAGUGGUAUAUGATT against DPYS: inactive: -0.288.
The same measure for CCUCAAUCUUGACAUAUAUTT against SKIP: inactive: 0.804; for CCACAUGAAAUGAAGAUCATT against NDUFA10: inactive: -0.392.
The same measure for GGACAUAAUAUAUGGGUGATT against TNFRSF10A: inactive: 0.129; for CACCCUGGAUUGUCUUCAATT against HCN4: inactive: -0.282; for CCAUCUACCUACUCAACAATT against MC5R: inactive: 0.225.
Consider GAGCUGUAUUUCUAUGUCATT against PLXNA3, for which the median seed-adjusted z-score was inactive: 0.255.
For GGAUUGCCCAGGGUUCCUATT against DGKQ, the median seed-adjusted z-score is inactive: -0.0985.
With CCUCAUGACUUCGCAAAUATT against COPB1, the median seed-adjusted z-score is inactive: -0.839.
The same measure for ACCAGAUUGUAUUAAUAUUTT against SOX18: inactive: 0.0663; for CAACUUUGAUGUGCGUGAATT against TOP2A: inactive: -0.187; for CUCUAUGUAUGACAAUGAATT against SERTAD1: inactive: 0.376.
The same measure for GUUCCUAUUUAAUCCCUAUTT against HOXB8: inactive: 0.133.
Consider GCCUGUCUAUAAUUGGAGATT against SPIC, for which the median seed-adjusted z-score is inactive: 0.379.
Consider CGUGGGUGUUGACUUCAAATT against RAB12, for which the median seed-adjusted z-score is inactive: -0.185.
The same measure for GGAUUUCGAUGUCAGACUUTT against RAF1: inactive: 0; for CAGUGUGGAUGUUCCAAAUTT against LRFN4: inactive: -0.076.
For the sequence GGAAACUAGCUGUUAUACATT against USP40, the median seed-adjusted z-score was inactive: 0.00437.
GAUCUGCAAUCCUUAUUAATT against ZNF208: the median seed-adjusted z-score was inactive: 0.265.
For the sequence CAACGAACCUCACUUUGUATT against SEMA4C, the median seed-adjusted z-score was inactive: -0.334.
Next, GGGAGAGCAUGAUCAUCCATT against GCM1: inactive: 0.0197; GGAAUUUUGUCACCAUGUUTT against MTNR1A: inactive: 0; CAAUCCUCGAGGAAAAUUATT against ATOH7: inactive: 0.135.
On to GGUCGUACAUCAGAACUUATT against ZNF565, for which the median seed-adjusted z-score is inactive: 0.457.
Regarding GAAGGACCGAUUUUACCGATT against PAK1, the median seed-adjusted z-score is inactive: -0.168.
Next, CUAUGAUCCCGACUAUGAATT against RAPGEF1: inactive: 0.304; GCUGAACAUCAGUACUUCATT against MAPK7: inactive: -0.0118; CCCUAUCACGGACUGCUUATT against ZNF622: inactive: -0.462.
The same measure for CAUUCGAUCUAGCAAAUUATT against TUBB1: inactive: -0.289.
Consider GGAUGUCCUUCUGACAUAUTT against ITFG1, for which the median seed-adjusted z-score is inactive: -0.417.
Next, GAUUUACCCUUCCAACAGATT against EYA1: inactive: 0.0838.
Next, UGCCCGUCAUUGUCUCCAATT against KCNA7: inactive: 0.394.
For the sequence GGGCUGUCAAGAAAGCAUATT against KCNAB1, the median seed-adjusted z-score is inactive: 0.721.
GAGAGAGAGUACAACAACATT against GABBR2: the median seed-adjusted z-score is inactive: -0.038.
Next, CGGACCUAUCAAAAGAAUATT against SNRNP70: inactive: -0.405; CCAAGAAGAUCAAUGUCAATT against CASKIN1: inactive: 0.555.
